According to PMC4279437:
No constants are given. Whether binding was seen depends on the method and setting. For some of these results: Binding seen in cells or lysates may run through a third protein. Some binding calls cover weakened binding; strength is not graded here. For some of these results: Sequences can lack the tags named with a protein.

Chains of the proteins cited; added tags and fusions are not shown. Lines headed by an entry give the natural chain unless they say otherwise; changes in a name come on top. Residues count along the entry.
UniProt Q6R327: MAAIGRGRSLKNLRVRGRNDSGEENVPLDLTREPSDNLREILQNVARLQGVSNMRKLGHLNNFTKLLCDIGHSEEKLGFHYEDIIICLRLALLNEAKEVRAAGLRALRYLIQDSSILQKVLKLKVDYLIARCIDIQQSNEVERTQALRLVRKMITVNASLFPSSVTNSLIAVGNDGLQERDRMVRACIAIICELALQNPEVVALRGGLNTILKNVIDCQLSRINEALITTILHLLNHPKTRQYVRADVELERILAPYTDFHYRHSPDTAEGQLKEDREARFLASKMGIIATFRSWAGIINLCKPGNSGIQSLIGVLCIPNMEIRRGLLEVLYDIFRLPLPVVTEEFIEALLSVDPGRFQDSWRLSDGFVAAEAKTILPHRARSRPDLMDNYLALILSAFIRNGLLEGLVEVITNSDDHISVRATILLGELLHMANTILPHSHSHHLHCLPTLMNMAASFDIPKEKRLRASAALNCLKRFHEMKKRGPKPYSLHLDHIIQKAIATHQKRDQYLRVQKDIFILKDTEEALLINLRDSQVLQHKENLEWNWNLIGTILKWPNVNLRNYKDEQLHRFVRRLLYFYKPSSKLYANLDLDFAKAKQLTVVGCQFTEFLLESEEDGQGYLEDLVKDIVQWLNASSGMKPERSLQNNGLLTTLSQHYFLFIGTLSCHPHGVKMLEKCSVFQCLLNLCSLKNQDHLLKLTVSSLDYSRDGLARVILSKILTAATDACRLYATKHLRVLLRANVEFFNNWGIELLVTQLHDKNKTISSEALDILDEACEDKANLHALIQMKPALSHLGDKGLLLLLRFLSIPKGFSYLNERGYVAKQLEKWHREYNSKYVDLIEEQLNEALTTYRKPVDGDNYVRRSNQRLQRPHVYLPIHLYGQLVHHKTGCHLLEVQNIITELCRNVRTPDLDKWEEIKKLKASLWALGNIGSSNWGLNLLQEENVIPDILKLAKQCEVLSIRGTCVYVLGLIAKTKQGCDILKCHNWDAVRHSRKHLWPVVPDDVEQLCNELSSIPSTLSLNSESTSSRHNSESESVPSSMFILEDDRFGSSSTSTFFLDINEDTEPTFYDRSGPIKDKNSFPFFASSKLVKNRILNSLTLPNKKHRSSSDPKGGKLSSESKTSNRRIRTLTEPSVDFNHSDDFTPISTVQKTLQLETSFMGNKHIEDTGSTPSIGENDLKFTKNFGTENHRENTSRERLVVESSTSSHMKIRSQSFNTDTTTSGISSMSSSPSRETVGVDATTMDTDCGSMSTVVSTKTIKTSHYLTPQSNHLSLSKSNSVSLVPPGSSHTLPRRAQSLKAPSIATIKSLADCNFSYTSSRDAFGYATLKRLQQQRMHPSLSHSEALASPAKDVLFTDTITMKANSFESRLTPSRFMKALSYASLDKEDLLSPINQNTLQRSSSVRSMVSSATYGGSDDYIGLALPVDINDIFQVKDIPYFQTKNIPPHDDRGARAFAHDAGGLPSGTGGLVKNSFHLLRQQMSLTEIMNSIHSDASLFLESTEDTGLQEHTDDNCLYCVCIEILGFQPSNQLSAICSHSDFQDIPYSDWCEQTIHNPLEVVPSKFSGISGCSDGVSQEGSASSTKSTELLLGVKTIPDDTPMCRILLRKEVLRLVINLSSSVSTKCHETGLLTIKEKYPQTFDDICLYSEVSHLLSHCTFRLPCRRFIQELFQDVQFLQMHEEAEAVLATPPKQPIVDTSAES
Gal4DBD fusion of the interacting domain of Rictor (a.a. 50-101): residues 50-101 of Q6R327
UniProt Q8N122: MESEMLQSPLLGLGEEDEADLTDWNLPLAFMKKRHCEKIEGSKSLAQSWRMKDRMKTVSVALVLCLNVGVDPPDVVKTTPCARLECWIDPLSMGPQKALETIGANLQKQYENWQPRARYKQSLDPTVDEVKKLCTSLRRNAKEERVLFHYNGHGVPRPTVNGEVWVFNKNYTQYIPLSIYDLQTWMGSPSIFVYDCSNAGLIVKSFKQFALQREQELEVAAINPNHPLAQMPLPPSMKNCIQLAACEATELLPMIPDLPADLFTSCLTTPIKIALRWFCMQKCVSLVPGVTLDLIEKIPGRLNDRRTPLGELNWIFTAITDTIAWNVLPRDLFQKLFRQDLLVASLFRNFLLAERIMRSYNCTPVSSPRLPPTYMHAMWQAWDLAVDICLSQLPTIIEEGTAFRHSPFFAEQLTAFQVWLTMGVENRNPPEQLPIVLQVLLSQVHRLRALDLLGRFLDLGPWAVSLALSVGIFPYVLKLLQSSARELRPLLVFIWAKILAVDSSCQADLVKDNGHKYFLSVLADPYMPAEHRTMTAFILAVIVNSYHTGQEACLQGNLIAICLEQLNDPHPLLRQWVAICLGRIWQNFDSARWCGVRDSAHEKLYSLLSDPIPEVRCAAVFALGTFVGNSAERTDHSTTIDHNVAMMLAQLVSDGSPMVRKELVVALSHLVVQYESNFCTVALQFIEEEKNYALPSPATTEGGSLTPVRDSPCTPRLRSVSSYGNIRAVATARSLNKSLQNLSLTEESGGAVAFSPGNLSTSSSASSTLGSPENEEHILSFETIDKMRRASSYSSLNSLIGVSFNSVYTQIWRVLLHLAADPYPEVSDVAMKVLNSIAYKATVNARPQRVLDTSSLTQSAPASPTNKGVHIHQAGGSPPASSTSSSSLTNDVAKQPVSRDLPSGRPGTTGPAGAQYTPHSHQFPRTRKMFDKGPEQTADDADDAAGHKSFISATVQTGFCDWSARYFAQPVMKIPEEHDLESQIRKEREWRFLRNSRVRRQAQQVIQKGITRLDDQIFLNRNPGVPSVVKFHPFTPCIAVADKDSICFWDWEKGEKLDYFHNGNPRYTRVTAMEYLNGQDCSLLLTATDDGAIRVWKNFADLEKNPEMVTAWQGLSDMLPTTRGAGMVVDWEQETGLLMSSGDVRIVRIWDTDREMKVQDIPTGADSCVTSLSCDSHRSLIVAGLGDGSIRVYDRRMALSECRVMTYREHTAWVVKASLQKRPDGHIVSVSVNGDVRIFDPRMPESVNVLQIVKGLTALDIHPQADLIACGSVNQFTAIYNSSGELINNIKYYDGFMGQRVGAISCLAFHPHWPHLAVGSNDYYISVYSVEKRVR

How the values were obtained:
[1] = molecular target: GAL4DBD-Rictor fusion (full-length human Rictor) (human) (UniProt Q6R327); test: two-hybrid; defined Gal4DBD-Rictor and Gal4AD-DUSP10 constructs (full length, deletion mutants, interacting domains alone) introduced into AH109; growth on selective media (HIS3 reporter) and liquid β-galactosidase assays
[2] = molecular target: Gal4DBD fusion of the interacting domain of Rictor (a.a. 50-101) (human) (UniProt Q6R327); test: as above
[3] = molecular target: endogenous Raptor (U87 cells) (human (endogenous in U87)) (UniProt Q8N122); test: co-IP; endogenous Rictor, Raptor or DUSP10 immunoprecipitated from U87 cells, Western analysis of precipitates; controls: beads without antibody, control IgG
[4] = molecular target: endogenous Rictor (U87 cells) (human (endogenous in U87)) (UniProt Q6R327); test: as above

B1: full-length DUSP10-AD fusion (protein, UniProt Q9Y6W6-1 1-482)
chain: MPPSPLDDRVVVALSRPVRPQDLNLCLDSSYLGSANPGSNSHPPVIATTVVSLKAANLTYMPSSSGSARSLNCGCSSASCCTVATYDKDNQAQTQAIAAGTTTTAIGTSTTCPANQMVNNNENTGSLSPSSGVGSPVSGTPKQLASIKIIYPNDLAKKMTKCSKSHLPSQGPVIIDCRPFMEYNKSHIQGAVHINCADKISRRRLQQGKITVLDLISCREGKDSFKRIFSKEIIVYDENTNEPSRVMPSQPLHIVLESLKREGKEPLVLKGGLSSFKQNHENLCDNSLQLQECREVGGGASAASSLLPQPIPTTPDIENAELTPILPFLFLGNEQDAQDLDTMQRLNIGYVINVTTHLPLYHYEKGLFNYKRLPATDSNKQNLRQYFEEAFEFIEEAHQCGKGLLIHCQAGVSRSATIVIAYLMKHTRMTMTDAYKFVKGKRPIISPNLNFMGQLLEFEEDLNNGVTPRILTPKLMGVETVV
[1]
  binding: binds

B2: Gal4AD fusion of the interacting domain of DUSP10 (a.a. 101-146) (domain or fragment, UniProt Q9Y6W6-1 101-146)
chain: TTTTAIGTSTTCPANQMVNNNENTGSLSPSSGVGSPVSGTPKQLAS
[2]
  binding: binds

B3: endogenous DUSP10 (U87 cells) (protein, UniProt Q9Y6W6-1 1-482)
chain: MPPSPLDDRVVVALSRPVRPQDLNLCLDSSYLGSANPGSNSHPPVIATTVVSLKAANLTYMPSSSGSARSLNCGCSSASCCTVATYDKDNQAQTQAIAAGTTTTAIGTSTTCPANQMVNNNENTGSLSPSSGVGSPVSGTPKQLASIKIIYPNDLAKKMTKCSKSHLPSQGPVIIDCRPFMEYNKSHIQGAVHINCADKISRRRLQQGKITVLDLISCREGKDSFKRIFSKEIIVYDENTNEPSRVMPSQPLHIVLESLKREGKEPLVLKGGLSSFKQNHENLCDNSLQLQECREVGGGASAASSLLPQPIPTTPDIENAELTPILPFLFLGNEQDAQDLDTMQRLNIGYVINVTTHLPLYHYEKGLFNYKRLPATDSNKQNLRQYFEEAFEFIEEAHQCGKGLLIHCQAGVSRSATIVIAYLMKHTRMTMTDAYKFVKGKRPIISPNLNFMGQLLEFEEDLNNGVTPRILTPKLMGVETVV
[3]
  binding: no binding
[4]
  binding: binds
